Test results taken from the supplement of paper PMC10849652.
The other results are listed elsewhere or left out.

Amino acid sequences for entries named in this document (tags omitted). A change or cut given only in a name is not applied to a line headed by its entry.
UniProt Q8WZA9: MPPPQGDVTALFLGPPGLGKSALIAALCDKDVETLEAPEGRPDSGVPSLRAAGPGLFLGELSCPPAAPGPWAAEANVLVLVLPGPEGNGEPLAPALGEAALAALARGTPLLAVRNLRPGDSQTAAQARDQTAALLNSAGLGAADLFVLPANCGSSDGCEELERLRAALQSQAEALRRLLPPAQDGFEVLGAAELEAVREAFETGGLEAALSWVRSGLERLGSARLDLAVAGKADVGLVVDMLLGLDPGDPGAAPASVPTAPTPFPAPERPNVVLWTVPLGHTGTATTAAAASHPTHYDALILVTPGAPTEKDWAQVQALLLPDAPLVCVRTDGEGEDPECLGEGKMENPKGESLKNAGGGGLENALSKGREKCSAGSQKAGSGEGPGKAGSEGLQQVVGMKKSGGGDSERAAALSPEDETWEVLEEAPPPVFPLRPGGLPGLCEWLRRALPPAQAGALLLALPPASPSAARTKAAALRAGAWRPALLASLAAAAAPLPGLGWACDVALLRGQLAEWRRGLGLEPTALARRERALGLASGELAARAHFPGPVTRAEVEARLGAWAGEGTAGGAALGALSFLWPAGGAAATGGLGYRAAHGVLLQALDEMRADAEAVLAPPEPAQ
UniProt Q8NB78: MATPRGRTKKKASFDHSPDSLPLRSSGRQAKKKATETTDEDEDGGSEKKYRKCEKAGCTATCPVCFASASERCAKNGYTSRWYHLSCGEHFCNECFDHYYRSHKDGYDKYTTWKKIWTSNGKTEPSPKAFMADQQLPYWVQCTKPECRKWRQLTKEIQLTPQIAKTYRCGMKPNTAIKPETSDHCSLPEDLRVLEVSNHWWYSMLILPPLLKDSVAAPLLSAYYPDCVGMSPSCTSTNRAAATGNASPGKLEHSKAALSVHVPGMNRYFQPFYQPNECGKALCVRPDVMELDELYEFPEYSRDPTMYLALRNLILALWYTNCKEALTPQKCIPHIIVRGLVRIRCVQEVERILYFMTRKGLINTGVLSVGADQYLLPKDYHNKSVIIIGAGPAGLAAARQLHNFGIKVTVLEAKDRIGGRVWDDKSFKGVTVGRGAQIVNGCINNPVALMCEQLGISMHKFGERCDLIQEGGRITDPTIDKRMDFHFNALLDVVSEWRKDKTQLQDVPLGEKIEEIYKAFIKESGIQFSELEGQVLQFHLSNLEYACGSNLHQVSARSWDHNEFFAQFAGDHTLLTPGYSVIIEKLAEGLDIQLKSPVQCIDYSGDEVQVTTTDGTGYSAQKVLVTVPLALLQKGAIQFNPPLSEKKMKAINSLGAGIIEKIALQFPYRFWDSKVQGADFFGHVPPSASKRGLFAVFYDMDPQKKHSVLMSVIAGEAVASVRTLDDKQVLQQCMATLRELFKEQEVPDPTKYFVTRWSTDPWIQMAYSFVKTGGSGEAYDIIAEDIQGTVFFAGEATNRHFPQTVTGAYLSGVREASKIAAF
UniProt Q9NWZ3, whole entry, looked up: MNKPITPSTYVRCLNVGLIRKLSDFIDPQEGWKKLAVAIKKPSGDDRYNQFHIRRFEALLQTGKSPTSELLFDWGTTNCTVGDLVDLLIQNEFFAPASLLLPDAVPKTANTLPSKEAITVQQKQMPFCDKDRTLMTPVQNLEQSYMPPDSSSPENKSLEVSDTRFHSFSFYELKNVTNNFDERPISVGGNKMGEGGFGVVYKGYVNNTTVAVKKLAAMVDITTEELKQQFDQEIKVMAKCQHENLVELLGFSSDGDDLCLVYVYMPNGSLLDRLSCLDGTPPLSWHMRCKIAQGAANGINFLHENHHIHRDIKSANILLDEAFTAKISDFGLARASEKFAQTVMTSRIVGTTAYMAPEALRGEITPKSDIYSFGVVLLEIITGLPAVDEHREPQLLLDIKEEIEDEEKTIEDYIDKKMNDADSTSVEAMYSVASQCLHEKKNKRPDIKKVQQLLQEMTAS
UniProt Q15046, whole entry, looked up: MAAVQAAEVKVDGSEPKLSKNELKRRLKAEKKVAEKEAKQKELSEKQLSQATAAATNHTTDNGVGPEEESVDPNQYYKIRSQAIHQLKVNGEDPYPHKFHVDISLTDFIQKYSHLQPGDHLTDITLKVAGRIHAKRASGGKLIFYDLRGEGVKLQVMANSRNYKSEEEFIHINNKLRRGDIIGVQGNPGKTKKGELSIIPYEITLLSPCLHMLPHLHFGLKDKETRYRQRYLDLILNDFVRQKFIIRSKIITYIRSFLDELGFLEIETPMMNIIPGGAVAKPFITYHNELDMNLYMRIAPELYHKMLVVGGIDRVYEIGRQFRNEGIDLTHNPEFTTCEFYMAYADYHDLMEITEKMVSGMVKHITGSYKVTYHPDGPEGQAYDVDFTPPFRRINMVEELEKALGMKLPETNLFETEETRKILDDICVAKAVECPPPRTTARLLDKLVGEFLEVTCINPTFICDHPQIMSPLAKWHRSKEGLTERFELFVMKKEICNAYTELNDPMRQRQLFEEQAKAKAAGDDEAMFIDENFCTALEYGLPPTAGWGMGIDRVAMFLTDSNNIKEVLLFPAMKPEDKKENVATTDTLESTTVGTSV
UniProt Q7Z5Y7: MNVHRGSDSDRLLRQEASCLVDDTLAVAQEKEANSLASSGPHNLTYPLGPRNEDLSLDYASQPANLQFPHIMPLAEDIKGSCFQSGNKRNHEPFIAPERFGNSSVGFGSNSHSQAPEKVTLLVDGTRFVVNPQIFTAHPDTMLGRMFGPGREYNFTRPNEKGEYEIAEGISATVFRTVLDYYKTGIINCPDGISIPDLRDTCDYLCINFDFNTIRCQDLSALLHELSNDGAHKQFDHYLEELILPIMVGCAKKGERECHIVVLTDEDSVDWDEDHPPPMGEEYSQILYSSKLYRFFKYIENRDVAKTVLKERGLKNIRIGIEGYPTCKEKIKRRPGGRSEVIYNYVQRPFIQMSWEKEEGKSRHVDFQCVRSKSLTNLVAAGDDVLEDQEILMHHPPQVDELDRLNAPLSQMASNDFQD
UniProt Q13572: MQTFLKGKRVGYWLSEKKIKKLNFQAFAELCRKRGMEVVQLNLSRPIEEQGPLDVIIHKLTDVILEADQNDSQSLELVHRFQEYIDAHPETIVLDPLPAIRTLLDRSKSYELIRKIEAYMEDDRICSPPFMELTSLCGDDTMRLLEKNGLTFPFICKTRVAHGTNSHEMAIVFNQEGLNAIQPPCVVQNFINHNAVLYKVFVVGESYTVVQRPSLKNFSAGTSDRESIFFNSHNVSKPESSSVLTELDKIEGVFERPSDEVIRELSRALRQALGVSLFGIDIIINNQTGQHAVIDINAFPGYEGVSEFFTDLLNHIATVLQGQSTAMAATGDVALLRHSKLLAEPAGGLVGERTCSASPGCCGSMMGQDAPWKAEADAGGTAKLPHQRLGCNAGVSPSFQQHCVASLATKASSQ
UniProt P51617, whole entry, looked up: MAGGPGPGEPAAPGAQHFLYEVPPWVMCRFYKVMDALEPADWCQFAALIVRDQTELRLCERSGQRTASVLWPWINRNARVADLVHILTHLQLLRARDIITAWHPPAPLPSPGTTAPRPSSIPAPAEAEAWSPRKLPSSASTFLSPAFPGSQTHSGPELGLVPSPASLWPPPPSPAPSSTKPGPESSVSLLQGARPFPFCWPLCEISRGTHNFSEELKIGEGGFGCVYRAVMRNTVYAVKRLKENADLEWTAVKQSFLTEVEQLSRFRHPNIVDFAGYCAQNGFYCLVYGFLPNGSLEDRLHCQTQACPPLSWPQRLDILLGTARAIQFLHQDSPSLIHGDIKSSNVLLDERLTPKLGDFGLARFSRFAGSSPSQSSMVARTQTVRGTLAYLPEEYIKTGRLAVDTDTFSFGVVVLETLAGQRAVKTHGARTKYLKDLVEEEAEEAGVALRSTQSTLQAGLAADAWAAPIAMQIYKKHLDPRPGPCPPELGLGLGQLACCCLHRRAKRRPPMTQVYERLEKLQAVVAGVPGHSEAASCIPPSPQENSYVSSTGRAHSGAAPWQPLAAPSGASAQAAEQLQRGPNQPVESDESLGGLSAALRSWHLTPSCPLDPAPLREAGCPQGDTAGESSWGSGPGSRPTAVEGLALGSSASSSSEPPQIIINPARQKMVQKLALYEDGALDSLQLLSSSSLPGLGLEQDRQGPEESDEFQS
UniProt O00410: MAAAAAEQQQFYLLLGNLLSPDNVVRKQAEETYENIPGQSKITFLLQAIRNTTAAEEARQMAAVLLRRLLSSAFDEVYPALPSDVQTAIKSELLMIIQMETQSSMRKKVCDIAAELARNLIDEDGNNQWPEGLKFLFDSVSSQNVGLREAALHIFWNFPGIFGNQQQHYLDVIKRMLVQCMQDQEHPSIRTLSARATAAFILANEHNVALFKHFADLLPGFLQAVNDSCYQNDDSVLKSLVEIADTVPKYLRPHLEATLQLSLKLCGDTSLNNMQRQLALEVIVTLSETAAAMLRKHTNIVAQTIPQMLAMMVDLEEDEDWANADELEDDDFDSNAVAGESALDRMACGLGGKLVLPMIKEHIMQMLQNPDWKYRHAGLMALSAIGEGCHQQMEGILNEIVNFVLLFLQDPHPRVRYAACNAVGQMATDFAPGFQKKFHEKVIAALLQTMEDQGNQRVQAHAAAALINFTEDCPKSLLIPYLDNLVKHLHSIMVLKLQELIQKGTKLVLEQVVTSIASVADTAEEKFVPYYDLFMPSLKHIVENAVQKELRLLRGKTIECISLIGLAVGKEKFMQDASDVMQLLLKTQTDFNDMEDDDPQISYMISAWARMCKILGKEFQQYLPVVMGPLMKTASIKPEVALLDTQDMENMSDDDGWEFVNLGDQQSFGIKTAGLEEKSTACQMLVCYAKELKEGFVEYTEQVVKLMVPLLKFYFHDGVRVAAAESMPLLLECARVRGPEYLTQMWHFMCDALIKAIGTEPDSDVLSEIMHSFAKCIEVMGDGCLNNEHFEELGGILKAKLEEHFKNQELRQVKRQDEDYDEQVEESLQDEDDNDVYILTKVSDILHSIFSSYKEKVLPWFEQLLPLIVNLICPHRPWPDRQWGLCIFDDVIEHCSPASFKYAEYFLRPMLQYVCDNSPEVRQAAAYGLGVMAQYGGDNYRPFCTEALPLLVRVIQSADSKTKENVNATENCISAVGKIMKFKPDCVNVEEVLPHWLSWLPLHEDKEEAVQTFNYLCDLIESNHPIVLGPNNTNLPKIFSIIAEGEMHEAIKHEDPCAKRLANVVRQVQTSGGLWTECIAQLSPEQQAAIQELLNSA
UniProt Q969R8: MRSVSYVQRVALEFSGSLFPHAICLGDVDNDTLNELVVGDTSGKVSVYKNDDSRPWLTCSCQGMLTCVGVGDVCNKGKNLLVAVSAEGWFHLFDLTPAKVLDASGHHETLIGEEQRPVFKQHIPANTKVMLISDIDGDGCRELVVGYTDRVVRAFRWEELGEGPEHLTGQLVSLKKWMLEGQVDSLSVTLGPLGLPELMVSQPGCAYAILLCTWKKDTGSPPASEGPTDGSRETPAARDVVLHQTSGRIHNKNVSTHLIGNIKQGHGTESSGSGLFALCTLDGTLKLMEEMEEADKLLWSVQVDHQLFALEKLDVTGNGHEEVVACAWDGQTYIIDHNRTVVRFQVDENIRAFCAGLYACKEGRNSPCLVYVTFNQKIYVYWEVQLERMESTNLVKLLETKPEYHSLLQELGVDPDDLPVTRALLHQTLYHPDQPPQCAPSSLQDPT
UniProt Q14624: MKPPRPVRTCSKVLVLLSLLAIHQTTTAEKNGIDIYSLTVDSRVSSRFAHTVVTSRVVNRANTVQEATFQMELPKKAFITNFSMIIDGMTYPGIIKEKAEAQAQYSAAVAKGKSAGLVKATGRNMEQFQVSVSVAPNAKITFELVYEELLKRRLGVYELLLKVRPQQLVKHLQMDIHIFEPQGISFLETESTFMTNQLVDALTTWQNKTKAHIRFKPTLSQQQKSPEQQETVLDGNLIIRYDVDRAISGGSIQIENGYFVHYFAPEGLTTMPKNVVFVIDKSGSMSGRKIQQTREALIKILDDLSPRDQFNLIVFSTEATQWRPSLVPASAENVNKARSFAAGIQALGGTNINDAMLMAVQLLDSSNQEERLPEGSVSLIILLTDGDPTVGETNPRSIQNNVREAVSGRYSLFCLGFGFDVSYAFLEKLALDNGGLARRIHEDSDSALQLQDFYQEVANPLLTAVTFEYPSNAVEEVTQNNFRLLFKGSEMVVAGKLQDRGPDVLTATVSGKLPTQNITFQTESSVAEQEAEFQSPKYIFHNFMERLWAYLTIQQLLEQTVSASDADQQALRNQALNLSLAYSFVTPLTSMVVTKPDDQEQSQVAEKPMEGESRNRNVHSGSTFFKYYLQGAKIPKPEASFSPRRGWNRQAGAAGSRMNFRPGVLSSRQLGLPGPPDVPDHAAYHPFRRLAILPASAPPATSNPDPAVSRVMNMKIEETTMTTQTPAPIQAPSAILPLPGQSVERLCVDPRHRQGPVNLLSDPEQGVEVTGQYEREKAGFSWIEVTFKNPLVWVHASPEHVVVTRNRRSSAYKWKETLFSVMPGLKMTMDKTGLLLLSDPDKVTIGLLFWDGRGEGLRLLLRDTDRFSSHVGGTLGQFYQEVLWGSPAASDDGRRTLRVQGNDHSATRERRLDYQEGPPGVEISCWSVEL

Experiments:
Experiment in all cases: log2 fold change, soluble protein after heating vs DMSO (PISA); higher = thermal stabilisation; K562 lysate, 10 uM; active = over 0.2 and 3.5 SD of the protein, either way, in both replicates (recomputed)
ibrutinib = compound: C=CC(=O)N1CCC[C@@H](n2nc(-c3ccc(Oc4ccccc4)cc3)c3c(N)ncnc32)C1 [ibrutinib]
In short: (§1)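 Thermal stability, expressed as log-two fold change relative to solvent controls, is given from duplicates. Crude K562 extract in PBS pH 7.4 with 1 mM MgCl2, at 1 mg/mL protein, was treated with 10 μM compound for 30 min and heated in aliquots for 3 min across 48°C-58°C. After pooling, adjustment to 0.5% NP-40 at 4°C and centrifugation at 21,000xg for 90 min, supernatant protein was measured by TMTpro 16plex LC-MS/MS with channel sums equalised.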

[1] = compound: CC(=O)c1cnc2ccc(-c3cc(Cl)c(O)c(Cl)c3)nc2c1N[C@H]1CC[C@H](CN(C)C)CC1
In short: as §1

ralimetinib = compound: CC(C)(C)Cn1c(N)nc2ccc(-c3[nH]c(C(C)(C)C)nc3-c3ccc(F)cc3)nc21 [ralimetinib]
In short: as §1

[2] = compound: CC(C)(O)CC(=O)NCCn1ccc2ncnc(Nc3ccc(Oc4cccc(C(F)(F)F)c4)c(Cl)c3)c21
In short: as §1

[3] = compound: CC(C)C1=C2N=C(C=C(N2N=C1)NCC3=CC=CC=C3)NCCCCCCN
In short: as §1

[4] = compound: CC1=C(C(CC(=O)N1)C2=CC=C(C=C2)C(F)(F)F)C(=O)NC3=C(C=C4C(=C3)C=NN4)F
In short: as §1

[5] = compound: CC1=C(C2=C(C=C1)C(=O)C3=CC=CC=C3N2CCCN)C
In short: as §1

[6] = compound: CC1=C(C=C(C=C1)NC(=O)C2=CC(=CC=C2)C(C)(C)C#N)NC3=CC4=C(C=C3)N=CN(C4=O)C
In short: as §1

[7] = compound: CC1=C(C=C(C=C1)NC(=O)C2=CC(=CC=C2)N(C)C)NC(=O)C3=CC=C(C=C3)O
In short: as §1

[8] = compound: CC1=CC=C(C=C1)SC2=C3C=C(SC3=CN=C2)C(=O)N
In short: as §1

Measured: log2 fold change

KCTD9 (UniProt Q7L273)
inactive: ibrutinib 0.018 | [1] -0.023 | ralimetinib -0.002 | [2] -0.066 | [3] -0.015 | [4] 0.003 | [5] 0.035 | [6] -0.075 | [7] 0.132 | [8] 0.004

IRGQ (UniProt Q8WZA9)
inactive: ibrutinib 0.049 | [1] 0.001 | ralimetinib -0.008 | [2] -0.051 | [3] -0.032 | [4] -0.002 | [5] 0.006 | [6] 0.007 | [7] 0.013 | [8] -0.023

ITGA5 (UniProt P08648)
inactive: ibrutinib 0.042 | [1] 0.007 | ralimetinib 0.011 | [2] -0.018 | [3] -0.016 | [4] 0.014 | [5] 0.02 | [6] -0.013 | [7] -0.002 | [8] -0.02

IQGAP3 (UniProt Q86VI3)
inactive: ibrutinib 0.028 | [1] 0.054 | ralimetinib 0.021 | [2] -0.06 | [3] -0.027 | [4] 0.017 | [5] -0.153 | [6] -0.017 | [7] 0.082 | [8] -0.051

KAT8 (UniProt Q9H7Z6)
inactive: ibrutinib -0.034 | [1] -0.009 | ralimetinib 0.012 | [2] 0.005 | [3] 0.01 | [4] 0.044 | [5] 0.015 | [6] -0.004 | [7] 0.002 | [8] 0.015

KDM1B (UniProt Q8NB78)
inactive: ibrutinib 0.03 | [1] 0.027 | ralimetinib -0.07 | [2] 0.05 | [3] -0.017 | [4] -0.101 | [5] -0.059 | [6] -0.018 | [7] 0.058 | [8] 0.012

INTS4 (UniProt Q96HW7)
inactive: ibrutinib 0.051 | [1] 0.001 | ralimetinib 0.028 | [2] -0.036 | [3] -0.066 | [4] -0.021 | [5] -0.033 | [6] 0.021 | [7] 0.006 | [8] -0.009

ISG15 (UniProt P05161)
inactive: ibrutinib -0.017 | [1] -0.035 | ralimetinib 0.006 | [2] -0.08 | [3] -0.055 | [4] -0.027 | [5] -0.064 | [6] 0.009 | [7] 0.015 | [8] -0.034

Reprinted from the results shown (2 entries):
KAT8 (UniProt Q9H7Z6)
inactive: ibrutinib -0.034 | [1] -0.009 | ralimetinib 0.012 | [2] 0.005 | [3] 0.01 | [4] 0.044 | [5] 0.015 | [6] -0.004 | [7] 0.002 | [8] 0.015

KDM1B (UniProt Q8NB78)
inactive: ibrutinib 0.03 | [1] 0.027 | ralimetinib -0.07 | [2] 0.05 | [3] -0.017 | [4] -0.101 | [5] -0.059 | [6] -0.018 | [7] 0.058 | [8] 0.012

The list continues.

IRAK4 (UniProt Q9NWZ3)
inactive: ibrutinib 0 | [1] 0.195 | ralimetinib 0 | [2] -0.018 | [3] -0.01 | [4] -0.018 | [5] -0.011 | [6] -0.018 | [7] 0.008 | [8] -0.041

IRF2BP1 (UniProt Q8IU81)
inactive: ibrutinib 0.003 | [1] 0.027 | ralimetinib 0.008 | [2] 0.02 | [3] 0.006 | [4] -0.016 | [5] -0.027 | [6] 0.02 | [7] -0.001 | [8] -0.038

KARS1 (UniProt Q15046)
inactive: ibrutinib 0.009 | [1] 0.012 | ralimetinib 0.016 | [2] 0.018 | [3] 0.001 | [4] -0.011 | [5] 0.024 | [6] -0.014 | [7] 0.015 | [8] 0.029

KBTBD4 isoform 2 (UniProt Q9NVX7)
inactive: ibrutinib 0.051 | [1] -0.026 | ralimetinib -0.069 | [2] 0.009 | [3] -0.039 | [4] -0.156 | [5] -0.045 | [6] 0.142 | [7] -0.014 | [8] 0.031

IWS1 (UniProt Q96ST2)
inactive: ibrutinib 0.038 | [1] -0.026 | ralimetinib 0.018 | [2] 0.004 | [3] -0.002 | [4] -0.014 | [5] -0.014 | [6] -0.015 | [7] 0.008 | [8] -0.013

KCTD20 (UniProt Q7Z5Y7)
inactive: ibrutinib 0.109 | [1] 0.071 | ralimetinib 0.099 | [2] -0.009 | [3] 0.044 | [4] 0.062 | [5] 0.034 | [6] -0.001 | [7] 0.105 | [8] -0.051

ITPK1 (UniProt Q13572)
inactive: ibrutinib 0.017 | [1] -0.015 | ralimetinib 0.052 | [2] -0.055 | [3] 0.011 | [4] 0.01 | [5] -0.07 | [6] 0.017 | [7] 0.085 | [8] 0.042

ISY1 isoform 1 (UniProt Q9ULR0)
inactive: ibrutinib 0.019 | [1] 0.028 | ralimetinib 0.007 | [2] -0.029 | [3] -0.056 | [4] -0.019 | [5] -0.157 | [6] -0.006 | [7] -0.02 | [8] -0.04

IRAK1 (UniProt P51617)
inactive: ibrutinib 0.032 | [1] 0.195 | ralimetinib -0.024 | [2] -0.031 | [3] -0.018 | [4] -0.013 | [5] -0.028 | [6] -0.086 | [7] 0.062 | [8] 0

ITCH (UniProt Q96J02)
inactive: ibrutinib 0.018 | [1] -0.013 | ralimetinib -0.011 | [2] -0.016 | [3] 0.011 | [4] 0.017 | [5] -0.013 | [6] -0.008 | [7] 0.023 | [8] -0.028

IPO7 (UniProt O95373)
inactive: ibrutinib -0.009 | [1] -0.003 | ralimetinib 0.007 | [2] -0.041 | [3] -0.017 | [4] -0.017 | [5] -0.008 | [6] 0.016 | [7] -0.022 | [8] 0.007

IPO5 isoform 3 (UniProt O00410)
inactive: ibrutinib 0.023 | [1] 0.011 | ralimetinib 0.013 | [2] -0.009 | [3] -0.032 | [4] -0.015 | [5] 0.008 | [6] 0 | [7] -0.001 | [8] 0.009

ITFG2 (UniProt Q969R8)
inactive: ibrutinib 0.011 | [1] 0.008 | ralimetinib 0.067 | [2] 0 | [3] -0.042 | [4] 0.015 | [5] -0.031 | [6] -0.032 | [7] -0.028 | [8] 0.009

INTS8 (UniProt Q75QN2)
inactive: ibrutinib 0.024 | [1] 0.028 | ralimetinib 0.058 | [2] -0.028 | [3] 0.009 | [4] -0.021 | [5] -0.179 | [6] 0.023 | [7] -0.033 | [8] 0.031

JMJD7 (UniProt P0C870)
inactive: ibrutinib -0.094 | [1] -0.023 | ralimetinib -0.073 | [2] -0.11 | [3] 0.049 | [4] 0.086 | [5] -0.162 | [7] 0.043 | [8] 0.034

IREB2 (UniProt P48200)
inactive: ibrutinib -0.002 | [1] -0.015 | ralimetinib 0.013 | [2] -0.038 | [3] -0.032 | [4] -0.008 | [5] -0.009 | [6] 0.025 | [7] -0.001 | [8] 0.016

KCNK5 (UniProt O95279)
inactive: ibrutinib -0.125 | [1] 0.097 | [3] 0.167 | [4] -0.062 | [5] -0.057 | [6] 0.229 | [8] -0.345

KAZN isoform 3 (UniProt Q674X7)
inactive: ibrutinib -0.017 | ralimetinib -0.244 | [2] 0.063 | [3] 0.032 | [6] -0.014 | [7] 0.169

IQSEC2 (UniProt Q5JU85)
inactive: ibrutinib 0.016 | [1] -0.102 | ralimetinib 0.088 | [2] 0.051 | [3] -0.027 | [4] -0.031 | [5] -0.258 | [6] 0.049 | [7] -0.027 | [8] -0.059

ITIH4 (UniProt Q14624)
inactive: ibrutinib 0.025 | ralimetinib -0.026 | [2] -0.117 | [3] -0.097 | [5] -0.084 | [7] 0.022

KCTD21 (UniProt Q4G0X4)
inactive: ibrutinib -0.136 | ralimetinib 0.009 | [2] -0.104 | [3] 0.016 | [4] 0.047 | [6] 0.018 | [7] 0.078

KBTBD7 (UniProt Q8WVZ9)
inactive: ibrutinib 0.054 | [1] 0.004 | ralimetinib -0.001 | [2] -0.02 | [3] 0.01 | [5] -0.009 | [6] 0.048 | [7] 0.023 | [8] 0.03

ITIH2 (UniProt P19823)
inactive: ibrutinib -0.011 | [1] -0.024 | ralimetinib -0.032 | [2] -0.089 | [4] -0.171 | [6] 0.037 | [7] 0.028 | [8] 0.005
